# Measured values taken from patent publication US20030187056A1, “Live cell procedures to identify to identify compounds modulating intracellular distribution of phosphodiesterase( pde) enzymes” (priority 2000, published 2003).
# Chains of the proteins cited; added tags and fusions are not shown. Lines headed by an entry give the natural chain unless they say otherwise; changes in a name come on top. A line that says so, or that is headed by a name, gives the form on record, which may keep a tag or linker.
# HSPDE4A4catD-EGFP (Homo sapiens, UniProt P27815+Q08499), UniProt P27815+Q08499, fused with the stated changes: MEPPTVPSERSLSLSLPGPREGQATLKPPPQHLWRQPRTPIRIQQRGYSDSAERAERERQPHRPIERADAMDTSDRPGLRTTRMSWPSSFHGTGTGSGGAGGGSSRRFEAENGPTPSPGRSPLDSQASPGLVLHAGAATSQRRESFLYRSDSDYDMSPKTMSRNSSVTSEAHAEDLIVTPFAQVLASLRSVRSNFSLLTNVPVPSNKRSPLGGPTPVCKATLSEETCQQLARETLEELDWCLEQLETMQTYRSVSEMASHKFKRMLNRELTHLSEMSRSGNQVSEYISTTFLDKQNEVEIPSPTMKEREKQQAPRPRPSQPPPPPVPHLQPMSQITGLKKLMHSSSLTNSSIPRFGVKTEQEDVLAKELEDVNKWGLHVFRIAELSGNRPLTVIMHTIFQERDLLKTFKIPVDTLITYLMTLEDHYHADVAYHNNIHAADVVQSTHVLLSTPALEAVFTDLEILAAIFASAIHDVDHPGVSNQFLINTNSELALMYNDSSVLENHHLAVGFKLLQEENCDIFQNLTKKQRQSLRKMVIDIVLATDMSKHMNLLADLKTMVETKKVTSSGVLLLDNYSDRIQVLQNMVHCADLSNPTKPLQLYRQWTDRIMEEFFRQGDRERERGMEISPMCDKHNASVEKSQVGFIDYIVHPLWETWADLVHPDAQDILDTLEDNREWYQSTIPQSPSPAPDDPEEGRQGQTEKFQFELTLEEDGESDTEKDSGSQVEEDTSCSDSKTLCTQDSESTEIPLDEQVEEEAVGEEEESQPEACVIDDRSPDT
# UniProt P27815: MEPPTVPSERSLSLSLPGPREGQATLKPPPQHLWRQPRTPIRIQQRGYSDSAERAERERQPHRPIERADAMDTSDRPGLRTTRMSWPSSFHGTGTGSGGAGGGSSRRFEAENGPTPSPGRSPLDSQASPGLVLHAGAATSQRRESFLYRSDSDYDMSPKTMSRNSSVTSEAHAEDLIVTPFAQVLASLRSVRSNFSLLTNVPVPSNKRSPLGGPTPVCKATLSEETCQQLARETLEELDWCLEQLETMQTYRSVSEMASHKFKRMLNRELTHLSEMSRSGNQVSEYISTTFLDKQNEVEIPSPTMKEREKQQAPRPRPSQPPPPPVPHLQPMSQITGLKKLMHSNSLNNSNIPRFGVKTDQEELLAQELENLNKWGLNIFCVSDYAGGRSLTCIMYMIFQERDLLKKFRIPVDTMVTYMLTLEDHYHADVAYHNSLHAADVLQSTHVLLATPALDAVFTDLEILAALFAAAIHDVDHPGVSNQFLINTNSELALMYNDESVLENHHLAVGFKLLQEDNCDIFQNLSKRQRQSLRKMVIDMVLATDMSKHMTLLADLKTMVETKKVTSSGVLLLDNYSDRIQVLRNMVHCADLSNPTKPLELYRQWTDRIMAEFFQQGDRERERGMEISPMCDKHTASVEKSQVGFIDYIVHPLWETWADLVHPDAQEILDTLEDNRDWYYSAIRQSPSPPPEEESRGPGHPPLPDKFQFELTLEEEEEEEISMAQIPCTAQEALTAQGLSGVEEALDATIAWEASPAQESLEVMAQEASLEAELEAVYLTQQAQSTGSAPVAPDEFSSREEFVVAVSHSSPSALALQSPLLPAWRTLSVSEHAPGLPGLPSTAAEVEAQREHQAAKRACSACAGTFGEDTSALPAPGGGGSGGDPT
# UniProt Q08499: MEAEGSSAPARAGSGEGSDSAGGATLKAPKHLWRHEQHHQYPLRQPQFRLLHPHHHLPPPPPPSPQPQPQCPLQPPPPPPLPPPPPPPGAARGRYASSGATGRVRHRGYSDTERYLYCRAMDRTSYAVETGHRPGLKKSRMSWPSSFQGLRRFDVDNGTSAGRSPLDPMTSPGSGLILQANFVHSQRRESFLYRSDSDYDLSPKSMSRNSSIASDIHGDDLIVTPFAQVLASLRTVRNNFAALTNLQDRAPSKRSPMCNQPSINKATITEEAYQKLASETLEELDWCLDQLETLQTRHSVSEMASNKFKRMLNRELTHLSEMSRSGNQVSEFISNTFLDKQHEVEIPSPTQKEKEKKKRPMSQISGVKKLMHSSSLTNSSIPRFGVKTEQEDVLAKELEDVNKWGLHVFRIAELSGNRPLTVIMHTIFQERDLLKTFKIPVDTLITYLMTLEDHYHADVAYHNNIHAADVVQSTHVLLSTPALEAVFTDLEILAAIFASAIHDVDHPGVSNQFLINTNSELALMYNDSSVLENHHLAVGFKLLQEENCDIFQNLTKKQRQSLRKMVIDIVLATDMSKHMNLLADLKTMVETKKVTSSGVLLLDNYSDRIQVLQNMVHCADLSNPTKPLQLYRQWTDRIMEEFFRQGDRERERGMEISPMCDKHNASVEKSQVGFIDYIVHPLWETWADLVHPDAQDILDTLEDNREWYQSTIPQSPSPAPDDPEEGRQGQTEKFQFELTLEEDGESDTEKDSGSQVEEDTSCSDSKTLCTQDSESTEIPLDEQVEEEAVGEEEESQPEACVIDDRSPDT
# Some of these results come from one statement about several compounds together. At least one compound was matched to its structure with a doubt left.
# Target: T1, HSPDE4A4catD-EGFP (Homo sapiens, UniProt P27815+Q08499)
# T1 construct: the 3′-end catalytic region of HSPDE4D isoforms (nucleotides 700-2019 of HSPDE4D3 cDNA); HSPDE4A4 N-terminal fragment (nucleotides 1-1023 of L20965); expressed in transfected cells
# Type: cell-based
# Source text: Transiently transfected or stably transfected (non-clonal) cells are allowed to adhere to chambered coverglasses in HAM's F12 medium containing 10% FBS.
structure (smiles),measurement,setting,value
O=c1c2cccnc2n(-c2cccc([N+](=O)[O-])c2)c(=O)n1Cc1ccncc1 [RS25344],time for spots to reform after replacement of the compound,,≤ 60 min
same,time for dissolution of spots after removal of the compound,37° C.,≤ 60 min
